Data taken from the supplement of paper PMC8728848.
Some of the results follow.

Tests used:
Experiment in all cases: glycan array binding signal (z-score within array); higher = stronger binding
Settings in all cases: glycan notation: IUPAC condensed, linker removed
[1] = molecular target: Fuc(a1-2)Gal(b1-4)GlcNAc(b1-3)Gal(b1-4)GlcNAc(b1-3)Gal(b1-4)GlcNAc
How it was run: (§1)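 Columns mapping to the same glycan were averaged after glycan names were converted to IUPAC-condensed notation. The data come from 3228 arrays in the Consortium for Functional Glycomics database, limited to those with an available protein sequence. Binding is reported as a within-array Z-score averaged across arrays of one protein sequence and across linkers.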

[2] = molecular target: Fuc(a1-2)Gal(b1-4)GlcNAc(b1-3)GalNAc
How it was run: as §1

[3] = molecular target: Fuc(a1-2)Gal(b1-4)GlcNAc(b1-3)[Fuc(a1-2)Gal(b1-4)GlcNAc(b1-6)]GalNAc
How it was run: as §1

[4] = molecular target: Fuc(a1-2)Gal(b1-4)GlcNAc(b1-3)[Fuc(a1-3)[Gal(b1-4)]GlcNAc(b1-6)]Gal(b1-4)Glc
How it was run: as §1

[5] = molecular target: Fuc(a1-2)Gal(b1-4)GlcNAc(b1-6)GalNAc
How it was run: as §1

[6] = molecular target: Fuc(a1-2)Gal(b1-4)GlcNAc6S
How it was run: as §1

[7] = molecular target: Fuc(a1-2)Gal(b1-4)[Fuc(a1-3)]GlcNAc
How it was run: as §1

[8] = molecular target: Fuc(a1-2)Gal(b1-4)[Fuc(a1-3)]GlcNAc(b1-2)Man(a1-3)[Fuc(a1-2)Gal(b1-4)[Fuc(a1-3)]GlcNAc(b1-2)Man(a1-6)]Man(b1-4)GlcNAc(b1-4)[Fuc(a1-6)]GlcNAc
How it was run: as §1

[9] = molecular target: Fuc(a1-2)Gal(b1-4)[Fuc(a1-3)]GlcNAc(b1-2)[Fuc(a1-2)Gal(b1-4)[Fuc(a1-3)]GlcNAc(b1-4)]Man(a1-3)[Fuc(a1-2)Gal(b1-4)[Fuc(a1-3)]GlcNAc(b1-2)Man(a1-6)]Man(b1-4)GlcNAc(b1-4)GlcNAc
How it was run: as §1

[10] = molecular target: Fuc(a1-2)Gal(b1-4)[Fuc(a1-3)]GlcNAc(b1-3)Gal(b1-4)[Fuc(a1-3)]GlcNAc
How it was run: as §1

[11] = molecular target: Fuc(a1-2)Gal(b1-4)[Fuc(a1-3)]GlcNAc(b1-3)Gal(b1-4)[Fuc(a1-3)]GlcNAc(b1-3)Gal(b1-4)[Fuc(a1-3)]GlcNAc
How it was run: as §1

[12] = molecular target: Fuc(a1-2)Gal(b1-4)[Fuc(a1-3)]GlcNAc(b1-3)GalNAc
How it was run: as §1

[13] = molecular target: Fuc(a1-2)Gal(b1-4)[Fuc(a1-3)]GlcNAc(b1-3)[Neu5Ac(a2-6)Gal(b1-4)GlcNAc(b1-6)]Gal(b1-4)Glc
How it was run: as §1

[14] = molecular target: Fuc(a1-2)Gal3S(b1-4)GlcNAc
How it was run: as §1

[15] = molecular target: Fuc(a1-2)Gal6S(b1-3)GlcNAc
How it was run: as §1

[16] = molecular target: Fuc(a1-2)Gal6S(b1-3)GlcNAc6S
How it was run: as §1

Fuc(a1-2)Gal6S(b1-4)Glc = molecular target: Fuc(a1-2)Gal6S(b1-4)Glc
How it was run: as §1

[17] = molecular target: Fuc(a1-2)Gal6S(b1-4)Glc6S
How it was run: as §1

Fuc(a1-2)[Gal(a1-3)]Gal = molecular target: Fuc(a1-2)[Gal(a1-3)]Gal
How it was run: as §1

[18] = molecular target: Fuc(a1-2)[Gal(a1-3)]Gal(b1-3)GalNAc
How it was run: as §1

[19] = molecular target: Fuc(a1-2)[Gal(a1-3)]Gal(b1-3)GalNAc(b1-3)Gal(a1-4)Gal(b1-4)Glc
How it was run: as §1

[20] = molecular target: Fuc(a1-2)[Gal(a1-3)]Gal(b1-3)GlcNAc
How it was run: as §1

[21] = molecular target: Fuc(a1-2)[Gal(a1-3)]Gal(b1-3)GlcNAc(b1-2)Man(a1-3)[Fuc(a1-2)[Gal(a1-3)]Gal(b1-3)GlcNAc(b1-2)Man(a1-6)]Man(b1-4)GlcNAc(b1-4)GlcNAc
How it was run: as §1

[22] = molecular target: Fuc(a1-2)[Gal(a1-3)]Gal(b1-3)GlcNAc(b1-2)Man(a1-3)[Fuc(a1-2)[Gal(a1-3)]Gal(b1-3)GlcNAc(b1-2)Man(a1-6)]Man(b1-4)GlcNAc(b1-4)[Fuc(a1-6)]GlcNAc
How it was run: as §1

[23] = molecular target: Fuc(a1-2)[Gal(a1-3)]Gal(b1-3)GlcNAc(b1-3)GalNAc
How it was run: as §1

[24] = molecular target: Fuc(a1-2)[Gal(a1-3)]Gal(b1-3)GlcNAc(b1-6)GalNAc
How it was run: as §1

[25] = molecular target: Fuc(a1-2)[Gal(a1-3)]Gal(b1-4)Glc
How it was run: as §1

[26] = molecular target: Fuc(a1-2)[Gal(a1-3)]Gal(b1-4)GlcNAc
How it was run: as §1

[27] = molecular target: Fuc(a1-2)[Gal(a1-3)]Gal(b1-4)GlcNAc(b1-2)Man
How it was run: as §1

[28] = molecular target: Fuc(a1-2)[Gal(a1-3)]Gal(b1-4)GlcNAc(b1-2)Man(a1-3)[Fuc(a1-2)[Gal(a1-3)]Gal(b1-4)GlcNAc(b1-2)Man(a1-6)]Man(b1-4)GlcNAc(b1-4)GlcNAc
How it was run: as §1

[29] = molecular target: Fuc(a1-2)[Gal(a1-3)]Gal(b1-4)GlcNAc(b1-2)Man(a1-3)[Fuc(a1-2)[Gal(a1-3)]Gal(b1-4)GlcNAc(b1-2)Man(a1-6)]Man(b1-4)GlcNAc(b1-4)[Fuc(a1-6)]GlcNAc
How it was run: as §1

[30] = molecular target: Fuc(a1-2)[Gal(a1-3)]Gal(b1-4)GlcNAc(b1-3)GalNAc
How it was run: as §1

[31] = molecular target: Fuc(a1-2)[Gal(a1-3)]Gal(b1-4)GlcNAc(b1-3)[Fuc(a1-2)[Gal(a1-3)]Gal(b1-4)GlcNAc(b1-6)]GalNAc
How it was run: as §1

[32] = molecular target: Fuc(a1-2)[Gal(a1-3)]Gal(b1-4)GlcNAc(b1-6)GalNAc
How it was run: as §1

[33] = molecular target: Fuc(a1-2)[Gal(a1-3)]Gal(b1-4)[Fuc(a1-3)]Glc
How it was run: as §1

[34] = molecular target: Fuc(a1-2)[Gal(a1-3)]Gal(b1-4)[Fuc(a1-3)]GlcNAc
How it was run: as §1

[35] = molecular target: Fuc(a1-2)[Gal(a1-3)]Gal(b1-4)[Fuc(a1-3)]GlcNAc(b1-3)GalNAc
How it was run: as §1

[36] = molecular target: Fuc(a1-2)[Gal(a1-4)]Gal(b1-4)GlcNAc
How it was run: as §1

[37] = molecular target: Fuc(a1-2)[GalNAc(a1-3)]Gal
How it was run: as §1

[38] = molecular target: Fuc(a1-2)[GalNAc(a1-3)]Gal(b1-3)GalNAc(a1-3)[Fuc(a1-2)]Gal(b1-4)GlcNAc
How it was run: as §1

[39] = molecular target: Fuc(a1-2)[GalNAc(a1-3)]Gal(b1-3)GalNAc(b1-3)Gal(a1-4)Gal(b1-4)Glc
How it was run: as §1

[40] = molecular target: Fuc(a1-2)[GalNAc(a1-3)]Gal(b1-3)GlcNAc
How it was run: as §1

[41] = molecular target: Fuc(a1-2)[GalNAc(a1-3)]Gal(b1-3)GlcNAc(b1-2)Man(a1-3)[Fuc(a1-2)[GalNAc(a1-3)]Gal(b1-3)GlcNAc(b1-2)Man(a1-6)]Man(b1-4)GlcNAc(b1-4)GlcNAc
How it was run: as §1

[42] = molecular target: Fuc(a1-2)[GalNAc(a1-3)]Gal(b1-3)GlcNAc(b1-2)Man(a1-3)[Fuc(a1-2)[GalNAc(a1-3)]Gal(b1-3)GlcNAc(b1-2)Man(a1-6)]Man(b1-4)GlcNAc(b1-4)[Fuc(a1-6)]GlcNAc
How it was run: as §1

[43] = molecular target: Fuc(a1-2)[GalNAc(a1-3)]Gal(b1-3)GlcNAc(b1-3)GalNAc
How it was run: as §1

B1: Clone646PsrP (Streptococcus pneumoniae) (protein)
chain: MDHHHHHHHHASENLYFQGAPAINASLNIAKSETKVYTGEGVDSVYRVPIYYKLKVTNDGSKLTFTYTVTYVNPKTNDLGNISSMRPGYSIYNSGTSTQTMLTLGSDLGKPSGVKNYITDKNGRQVLSYNTSTMTTQGSGYTWGNGAQMNGFFAKKGYGLTSSWTVPITGTDTSFTFTPYAARTDRIGINYFNGGGKVVESSTTSQSLSQSKSLSVSAS
- glycan array binding signal (z-score) [1]: -0.673
- glycan array binding signal (z-score) [2]: 0.185
- glycan array binding signal (z-score) [3]: -0.099
- glycan array binding signal (z-score) [4]: -0.916
- glycan array binding signal (z-score) [5]: 2.58
- glycan array binding signal (z-score) [6]: 0.348
- glycan array binding signal (z-score) [7]: 0.085
- glycan array binding signal (z-score) [8]: 0.096
- glycan array binding signal (z-score) [9]: 0.297
- glycan array binding signal (z-score) [10]: -0.894
- glycan array binding signal (z-score) [11]: -0.461
- glycan array binding signal (z-score) [12]: 0.715
- glycan array binding signal (z-score) [13]: -0.41
- glycan array binding signal (z-score) [14]: -0.631
- glycan array binding signal (z-score) [15]: 1.58
- glycan array binding signal (z-score) [16]: 1.91
- glycan array binding signal (z-score) (Fuc(a1-2)Gal6S(b1-4)Glc): -0.239
- glycan array binding signal (z-score) [17]: -0.095
- glycan array binding signal (z-score) (Fuc(a1-2)[Gal(a1-3)]Gal): -0.314
- glycan array binding signal (z-score) [18]: 0.128
- glycan array binding signal (z-score) [19]: 1.02
- glycan array binding signal (z-score) [20]: 2
- glycan array binding signal (z-score) [21]: -0.845
- glycan array binding signal (z-score) [22]: 1.03
- glycan array binding signal (z-score) [23]: -0.402
- glycan array binding signal (z-score) [24]: 0.206
- glycan array binding signal (z-score) [25]: 0.601
- glycan array binding signal (z-score) [26]: 0.518
- glycan array binding signal (z-score) [27]: -0.252
- glycan array binding signal (z-score) [28]: -0.443
- glycan array binding signal (z-score) [29]: -0.348
- glycan array binding signal (z-score) [30]: -0.899
- glycan array binding signal (z-score) [31]: 0.786
- glycan array binding signal (z-score) [32]: -0.36
- glycan array binding signal (z-score) [33]: -0.984
- glycan array binding signal (z-score) [34]: 0.904
- glycan array binding signal (z-score) [35]: -0.641
- glycan array binding signal (z-score) [36]: 0.495
- glycan array binding signal (z-score) [37]: -0.526
- glycan array binding signal (z-score) [38]: -0.659
- glycan array binding signal (z-score) [39]: 0.209
- glycan array binding signal (z-score) [40]: 0.121
- glycan array binding signal (z-score) [41]: -0.761
- glycan array binding signal (z-score) [42]: -1
- glycan array binding signal (z-score) [43]: -0.123
